Laboratory results from US12171835B2, “Furan-aspidospermine dimer or pharmaceutically acceptable salt thereof, and preparation method, use and pharmaceutical composition” (Kunming Inst. of Botany, Chinese Acad. of Sciences, priority 2021, dated 2024).
At least one compound was matched to its structure with a doubt left.

System: bone marrow-derived macrophages (BMMs)
Assay: Activated immune test: ARG1 activity / M2 polarization in IL-4-stimulated BMMs
Type: cell-based, mouse
Conditions: comparison substances lacking the furan-aspidospermine dimer skeleton
Procedure: Activated immune test: bone marrow-derived macrophages (BMMs), as primary cells isolated from bone marrow and subjected to induced culture that can well reflect functions of the macrophages, are commonly used cells to study the functions of the macrophages. A mouse femur bone marrow was isolated and cultured in a medium containing an mCSF factor for 6-7 d to obtain mature BMMs; stimulation with IL-4 for 12 h can induce polarization of the BMMs to an immunosuppressive M2 type with high expression of ARG1; after the ARG1 protein was extracted, arginine hydrolysis was conducted in vitro, and color development was further conducted by reacting α-isonitrosopropiophenone with a hydrolyzate urea; an absorbance was measured at a wavelength of 540 nm as a marker of an ARG1 activity. A specific process was as follows: cells were pretreated with drugs (1 μM) (including the CPLD, CPLL, TBYA, MDK, HMD, compounds 1-3 and compounds 5-7); IL-4 stimulation was conducted for 12 h, followed by washing with PBS, and cells were lysed with a lysis buffer containing a protease inhibitor, and a total cell protein was obtained; after adding […] to 0.4 mM Mn^2, the total cell protein was heated at 55° C. for 10 min to fully activate an arginase ARG1. 0.5 mM arginine was added for incubation at 37° C. for 1 h to 2 h to fully hydrolyze the arginine. […]

Structure (SMILES): COC(=O)[C@H]1[C@H]2C[C@H]3c4[nH]c5ccccc5c4CCN3C[C@@H]2CC[C@@H]1O [Corynantheine, reference compound]
- activity of inhibiting M2 polarization in macrophages: neither the furan-ringed aspidospermine, Corynantheine, nor the furan-ringed aspidospermine, Ibogabisindole, have the activity
